PubChem BioAssay AID1259405 – NCATS – 2018

Test: 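Silenced genes that increase secreted GFP made by CHO cells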 (primary screen)
Cell system: Chinese hamster CHO-K1 ovary cells with stable secreted eGFP expression
Knock-down reagent: single siRNA against mouse genes, 0.8 pmol siRNA per well (2 µl of 400 nM stock)
Timing: 3 days
Read-out: 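Percent of the per-plate non-targeting control median for intracellular GFP per well by laser scanning cytometry and for cell viability by ATP luminescence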
Scale: GFP, % of control: higher = more GFP per well, higher productivity; viability (ATP), % of control: higher = more viable cells (more ATP)
Call rule: 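Called active when intracellular GFP, relative to negative control, is at or above 120%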
Here is one part, drawn at random, of about 50,000 deposited reagents. About 4,000 of them (8%) count as active. 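Mouse siRNA library applied to hamster cells; one well for each siRNA.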 A number with no mark means an inactive call. Reagents against one gene are numbered here. No sequences are given here.

How did the screen score Gnat2 #1?
GFP, % of control: 107; viability (ATP), % of control: 105

With Gnat2 #2, what does the deposit list?
GFP, % of control: 207 (active); viability (ATP), % of control: 112

What is on record for Gnat2 #3?
GFP, % of control: 85.2; viability (ATP), % of control: 77.8

For Dnajc15 #1, how do the results read?
GFP, % of control: 81.8; viability (ATP), % of control: 78

With Dnajc15 #2, what does the deposit list?
GFP, % of control: 54.1; viability (ATP), % of control: 43.3

For Dnajc15 #3, what does the deposit list?
GFP, % of control: 58.1; viability (ATP), % of control: 54

For Klra8 #1, what was measured?
GFP, % of control: 75.3; viability (ATP), % of control: 67.7

For Klra8 #2, what was measured?
GFP, % of control: 154 (active); viability (ATP), % of control: 94.5

With Klra8 #3, how do the results read?
GFP, % of control: 61.9; viability (ATP), % of control: 65.2

With Or52p1 #1, how do the results read?
GFP, % of control: 45.9; viability (ATP), % of control: 42.4

With Or52p1 #2, what does the deposit list?
GFP, % of control: 95; viability (ATP), % of control: 85.4

With Or52p1 #3, how do the results read?
GFP, % of control: 75.4; viability (ATP), % of control: 110

For Ptgs2 #1, what was measured?
GFP, % of control: 97.3; viability (ATP), % of control: 59.7

With Ptgs2 #2, what does the deposit list?
GFP, % of control: 53.1; viability (ATP), % of control: 60.1

With Ptgs2 #3, how do the results read?
GFP, % of control: 79.3; viability (ATP), % of control: 82.3

What did the screen give for Fibp #1?
GFP, % of control: 71.4; viability (ATP), % of control: 76.5

What is on record for Fibp #2?
GFP, % of control: 24.9; viability (ATP), % of control: 23.1

How did the screen score Fibp #3?
GFP, % of control: 95.6; viability (ATP), % of control: 91.3

2 entries from above, ordered by “viability (ATP), % of control”, descending:
Ptgs2 #3: GFP, % of control = 79.3; viability (ATP), % of control = 82.3
Fibp #1: GFP, % of control = 71.4; viability (ATP), % of control = 76.5
